These are yes or no findings as the source states them, for the method shown. In cells and extracts the contact can be indirect. Some entries that bind do so weakly or less than the wild type.
Biological target: T1, PP4 regulatory subunit PP4R2 (human (endogenous in HCT116)) (UniProt Q9NY27)
T1 sequence: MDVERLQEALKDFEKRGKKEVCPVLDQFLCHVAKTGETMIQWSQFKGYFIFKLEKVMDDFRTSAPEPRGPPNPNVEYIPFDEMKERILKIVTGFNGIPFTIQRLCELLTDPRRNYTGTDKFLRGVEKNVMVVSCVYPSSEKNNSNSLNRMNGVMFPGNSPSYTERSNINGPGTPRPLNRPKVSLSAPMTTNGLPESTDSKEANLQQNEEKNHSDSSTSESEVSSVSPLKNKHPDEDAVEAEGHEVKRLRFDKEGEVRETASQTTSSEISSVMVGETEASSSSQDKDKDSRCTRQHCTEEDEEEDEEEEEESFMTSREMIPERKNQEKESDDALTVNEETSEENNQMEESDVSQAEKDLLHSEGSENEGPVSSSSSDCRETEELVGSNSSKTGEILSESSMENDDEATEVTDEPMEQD
Assay: co-IP; anti-PP4R2 or anti-PP4C immunoprecipitation from 2 mg HCT116 whole-cell extract in RIPA buffer (4 h, 4 °C; Protein G Sepharose), immunoblot; cells mock treated (DMSO) or pretreated with NVP-2 or RO-3306 for 1 h

B1: PP4C (catalytic subunit of protein phosphatase 4) (enzyme, UniProt P60510 1-307)
chain: MAEISDLDRQIEQLRRCELIKESEVKALCAKAREILVEESNVQRVDSPVTVCGDIHGQFYDLKELFRVGGDVPETNYLFMGDFVDRGFYSVETFLLLLALKVRYPDRITLIRGNHESRQITQVYGFYDECLRKYGSVTVWRYCTEIFDYLSLSAIIDGKIFCVHGGLSPSIQTLDQIRTIDRKQEVPHDGPMCDLLWSDPEDTTGWGVSPRGAGYLFGSDVVAQFNAANDIDMICRAHQLVMEGYKWHFNETVLTVWSAPNYCYRCGNVAAILELDEHLQKDFIIFEAAPQETRGIPSKKPVADYFL
  binding: binds

— publication PMC7455706
